According to patent US20220251568A1:
No constants are given. Whether binding was seen depends on the method and setting. In cells and extracts the contact can be indirect. Some results given as binding are weak or reduced against the parent protein; the word gives no strength.

The chains behind the UniProt entries cited, without tags or fusion partners. Residues count along the entry.
UniProt Q13464, residues 2-1354: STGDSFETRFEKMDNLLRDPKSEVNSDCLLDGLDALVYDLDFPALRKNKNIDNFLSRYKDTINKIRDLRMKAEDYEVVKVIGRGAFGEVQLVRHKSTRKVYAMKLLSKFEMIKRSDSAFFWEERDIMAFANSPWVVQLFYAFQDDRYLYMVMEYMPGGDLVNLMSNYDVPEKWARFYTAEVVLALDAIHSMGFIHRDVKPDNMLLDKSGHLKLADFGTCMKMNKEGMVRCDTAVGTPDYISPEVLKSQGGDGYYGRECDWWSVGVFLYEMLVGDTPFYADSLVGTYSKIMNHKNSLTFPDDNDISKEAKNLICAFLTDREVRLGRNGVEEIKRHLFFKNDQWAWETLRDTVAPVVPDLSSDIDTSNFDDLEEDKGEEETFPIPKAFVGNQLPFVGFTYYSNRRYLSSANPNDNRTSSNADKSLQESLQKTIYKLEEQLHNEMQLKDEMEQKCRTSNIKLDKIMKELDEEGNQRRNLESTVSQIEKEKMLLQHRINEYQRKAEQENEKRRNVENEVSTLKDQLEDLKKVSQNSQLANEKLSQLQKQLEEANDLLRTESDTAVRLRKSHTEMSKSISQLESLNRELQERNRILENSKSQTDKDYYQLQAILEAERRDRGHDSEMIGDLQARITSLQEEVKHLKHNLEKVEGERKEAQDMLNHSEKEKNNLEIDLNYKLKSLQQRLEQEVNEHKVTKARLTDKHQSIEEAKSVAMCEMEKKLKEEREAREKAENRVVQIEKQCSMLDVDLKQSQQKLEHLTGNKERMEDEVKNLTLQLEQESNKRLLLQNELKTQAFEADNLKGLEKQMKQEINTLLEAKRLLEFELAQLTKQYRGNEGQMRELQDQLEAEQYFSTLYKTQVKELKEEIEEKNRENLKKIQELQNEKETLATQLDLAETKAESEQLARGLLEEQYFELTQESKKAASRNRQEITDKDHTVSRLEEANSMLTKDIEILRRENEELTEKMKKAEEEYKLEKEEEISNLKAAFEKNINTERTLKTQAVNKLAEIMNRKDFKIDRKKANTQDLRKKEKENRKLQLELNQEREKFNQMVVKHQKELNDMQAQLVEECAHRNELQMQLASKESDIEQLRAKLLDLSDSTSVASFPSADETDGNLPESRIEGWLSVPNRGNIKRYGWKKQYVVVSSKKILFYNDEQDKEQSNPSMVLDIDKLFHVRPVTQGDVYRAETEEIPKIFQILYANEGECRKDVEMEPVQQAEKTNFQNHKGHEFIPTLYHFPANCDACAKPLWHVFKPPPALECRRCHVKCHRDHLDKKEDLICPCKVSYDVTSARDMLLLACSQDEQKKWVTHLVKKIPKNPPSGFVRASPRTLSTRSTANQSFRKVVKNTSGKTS

Columns and labels:
[1] = molecular target: T1, RhoEα, short isoform of RhoE (human) (UniProt P61587); assay: co-IP, HEK293 cells
T1 sequence: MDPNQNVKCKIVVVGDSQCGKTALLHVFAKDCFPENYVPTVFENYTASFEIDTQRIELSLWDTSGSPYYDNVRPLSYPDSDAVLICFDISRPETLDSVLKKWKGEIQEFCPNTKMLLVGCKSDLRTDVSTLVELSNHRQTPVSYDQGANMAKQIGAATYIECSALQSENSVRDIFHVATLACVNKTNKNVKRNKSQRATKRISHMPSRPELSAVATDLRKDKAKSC

[2] = molecular target: T2, RND3, referred to alternately as RhoE (human) (UniProt P61587); assay: co-IP, HEK293 cells
T2 sequence: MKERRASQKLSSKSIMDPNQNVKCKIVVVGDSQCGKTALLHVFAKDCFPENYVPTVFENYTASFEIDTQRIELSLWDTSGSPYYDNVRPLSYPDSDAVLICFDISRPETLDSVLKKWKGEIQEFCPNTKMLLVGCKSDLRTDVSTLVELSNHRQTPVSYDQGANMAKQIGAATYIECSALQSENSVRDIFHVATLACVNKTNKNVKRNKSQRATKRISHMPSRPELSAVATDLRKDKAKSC

binding [1]: binds
binding [2]: binds
Substance: Rho-associated coiled-coil kinase 1 (ROCK1) (from UniProt Q13464 2-1354) (enzyme)
